Results: PubChem BioAssay AID2685 (National Center for Advancing Translational Sciences (NCATS), 2010)
Some of the results follow. These are further read-outs of the screen, such as a control signal, another cell line or another target. No call is given for them. Most of these compounds were active or inconclusive in the main read-out, so they are no random draw. Potencies come from curve fits of mixed quality, noted in brackets.

Experiment: qHTS Assay for Lipid Storage Modulators in Drosophila S3 Cells;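 as to cell number change: cells counted by Cell Tracker Red CMTPX staining in the red channel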
Conditions: BODIPY lipid droplet fluorescence, 18-24 h; for cell number change: measured here: cell count max response, cells fed with added oleic acid
Procedure, shortened: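 Drosophila S3 cells loaded with oleic acid (400 uM, as added) and compounds at several concentrations; lipid droplets imaged by 488-nm laser-scanning cytometry, 500–530 nm intensity and object ratio to cell channel. Percent activity normalized to 20 uM Triacsin C.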

[1] = measured here: lipid fluorescence (Fed channel) AC50, cells fed with added oleic acid
[2] = measured here: cell number channel AC50, cells fed with added oleic acid

| SMILES | cell number change | AC50 [1] | AC50 [2] |
| --- | --- | --- | --- |
| N#Cc1cn(-c2ccccc2)nc1-c1ccccc1 | -26.4% | 29.1 µM [falling, single point] |  |
| Cc1ccc2[nH]c(=O)c(CN(C(=O)c3cccc([N+](=O)[O-])c3)C(C)(C)C)cc2c1 | 2.88% |  |  |
| COC(=O)c1cc(NC(=O)c2cccc(C(F)(F)F)c2)c(=O)oc1C/C=N/OCc1cccc(Cl)c1Cl | 4.11% | 6.51 µM [falling, single point] |  |
| CCC(C)NC(=O)CC1Oc2ccc(Cl)cc2NC1=O (configuration not stated) | 2.9% | 0.231 µM [falling, full curve, poor fit] |  |
| O=C(NNC(=O)c1ccc(Br)s1)c1ccc(F)c(S(=O)(=O)N2CCOCC2)c1 | -15.9% | 0.082 µM [rising, full curve, poor fit] |  |
| CCCOC(=O)Nc1cc(OC)c(Cl)cc1OC | 14.4% | 14.6 µM [rising, partial curve] |  |
| CCN(C(=O)CSc1nc2ccccc2n1CC)C1CCS(=O)(=O)C1 (configuration not stated) | 40.3% | 29.1 µM [rising, single point] |  |
| CCOc1ccc(N2C(=O)CC(C(C)c3ccccc3)C2=O)cc1 (configuration not stated) | -21.5% |  |  |
| CC1CC(C)CN(C(=O)CCc2nnc3ccc(N4CCCCC4)nn23)C1 (configuration not stated) | 11.8% |  |  |
| Cc1ccc(S(=O)(=O)c2ccc(Cl)cc2)cc1S(=O)(=O)NC(C)C(=O)O (configuration not stated) | 83.3% |  | 8.2 µM [rising, partial curve] |
| Cc1cc2nc(-c3ccc(SCC(=O)Nc4ccc(S(=O)(=O)NC5CC5)cc4)nc3)[nH]c2cc1C | 4.96% | 2.31 µM [rising, single point] |  |
| Cc1cc(C)nc(SCc2nc3ccccc3n2C)n1 | 0.765% | 3.26 µM [rising, partial curve] |  |
| CC1(C)CC(NS(=O)(=O)c2cccc3ccccc23)CC(C)(C)N1 | 5.41% |  |  |
| C=CCN1C(=O)/C(=C2/Sc3ccccc3N2CCCS(=O)(=O)O)SC1=S | -29.1% | 0.651 µM [falling, single point] | 3.26 µM [falling, full curve, poor fit] |
| CCCOc1ccc(NC(=O)CC2C(=O)Nc3ccccc3N2CC(=O)N2CCCC2)cc1 (configuration not stated) | 1.61% | 2.91 µM [rising, full curve] |  |
| O=C1C=CC(=O)N1c1cccc(-c2ccccc2)c1 | -59.4% | 25.9 µM [falling, partial curve] | 23.1 µM [falling, partial curve] |
| CCCCN=c1sc(C(=O)OC)cc(=O)n1CCCC | 78.7% | 29.1 µM [rising, single point] | 16.4 µM [rising, single point] |
| O=C(NC1CCCCC1)[C@@H]1CSC2c3ccccc3C(=O)N21 (some centres not stated) | 2.39% |  |  |
| Cc1nn(Cc2c(Cl)cccc2Cl)c(C)c1NC(=O)c1cnn2c(C(F)F)cc(-c3ccccc3)nc12 | -15.1% |  | 0.184 µM [rising, full curve, poor fit] |
| O=C(NC1CCCCC1)N1CCCCCCC1 | 12.6% | 0.517 µM [falling, single point] |  |
| Cc1ccc(C(=O)N2CCN3C(=O)c4ccccc4C23c2ccc(Cl)cc2)cc1 (configuration not stated) | 38.7% | 6.51 µM [rising, single point] | 10.3 µM [rising, partial curve] |
| O=C(Cn1c(=O)oc2ccccc21)Nc1cccc(Cl)c1 | 8.74% | 29.1 µM [rising, single point] |  |
| CCCc1cc(=O)oc2cc(OCC(=O)NC3CC(C)(C)NC(C)(C)C3)ccc12 | 11.5% |  |  |
| CCOc1ccc(N=C2SC(C(=O)Nc3ccccc3C#N)C(N)=C2C(=O)Nc2ccc(Cl)cc2)cc1 (configuration not stated) |  | 6.51 µM [falling, single point] |  |
| CCOc1ccc(NC(=O)C2CCCN2S(=O)(=O)c2ccc3c(c2)C(C)(C)C(=O)N3C)cc1 (configuration not stated) | 11.7% | 29.1 µM [rising, single point] |  |
| CCCCn1c(N)c(N(CCC(C)C)C(=O)C2=COCCO2)c(=O)[nH]c1=O | -1.74% | 0.82 µM [falling, partial curve] |  |
| CCC(CC)NC(=O)COC(=O)c1cccc(C)c1O | 66.6% | 0.00461 µM [rising, full curve, poor fit] | 16.4 µM [rising, single point] |
| Cc1ccc(S(=O)(=O)N/N=C\c2cc3c(cc2Br)OCO3)cc1 | 45.4% | 9.2 µM [rising, partial curve] | 10.3 µM [rising, partial curve] |
| Nc1nnc(N2CCCCCC2)s1 | 15.1% | 4.11 µM [rising, single point] |  |

Rewritten field by field: entries from further up.
COC(=O)c1cc(NC(=O)c2cccc(C(F)(F)F)c2)c(=O)oc1C/C=N/OCc1cccc(Cl)c1Cl
  cell number change: 4.11%
  AC50 [1]: 6.51 µM [falling, single point]
CCC(CC)NC(=O)COC(=O)c1cccc(C)c1O
  cell number change: 66.6%
  AC50 [1]: 0.00461 µM [rising, full curve, poor fit]
  AC50 [2]: 16.4 µM [rising, single point]
